# From publication doi:10.1101/355487
# Sequences of proteins named here, by UniProt entry; tags and fusion partners are left off. Residues count along the entry.
# UniProt Q03188, residues 723-943: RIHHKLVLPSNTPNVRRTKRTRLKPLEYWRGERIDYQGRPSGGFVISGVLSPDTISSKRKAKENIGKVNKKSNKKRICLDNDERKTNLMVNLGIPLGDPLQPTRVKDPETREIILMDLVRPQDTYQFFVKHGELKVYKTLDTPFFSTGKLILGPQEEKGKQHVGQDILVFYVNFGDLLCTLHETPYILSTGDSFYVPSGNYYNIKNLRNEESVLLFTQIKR
# These are yes or no findings as the source states them, for the method shown. Binding seen in cells or lysates may run through a third protein. Some results given as binding are weak or reduced against the parent protein; the word gives no strength.
# B1: HsM18BP1^325-480 (domain or fragment, UniProt Q6P0N0 325-480)
# chain: TVPGETGLPGSMKDTCKIVLATPRLHITIPRRSKRNISKLSPPRIFQTVTNGLKKNQVVQLQEWMIKSINNNTAICVEGKLIDVTNIYWHSNVIIERIEHNKLRTISGNVYILKGMIDQISMKEAGYPNYLIRKFMFGFPENWKEHIDNFLEQLRA
# Target: GST-Prescission-hsCENP-C^723-943 (human) (UniProt Q03188)
# Assay: pull-down
binder,measurement,value
B1,binding,binds
